Results are given in words; binding and its absence hold for the method and conditions named. Some entries that bind do so weakly or less than the wild type.

By UniProt entry, the sequences of proteins in these tests, tags left out. Where a name states a change or a piece, a line headed by the entry shows the natural chain unless it says otherwise.
UniProt Q02223: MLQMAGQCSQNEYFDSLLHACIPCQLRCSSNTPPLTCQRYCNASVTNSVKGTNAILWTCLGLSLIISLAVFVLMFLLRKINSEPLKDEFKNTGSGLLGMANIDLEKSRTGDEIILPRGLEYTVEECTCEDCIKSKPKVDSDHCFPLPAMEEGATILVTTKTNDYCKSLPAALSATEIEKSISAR

In test [1] the target is human BCMA expressed on cells (NCI-H929, U266, JJN3, 293:BCMA) (human) (UniProt Q02223). The test is described as follows: cell binding, NCI-H929 cells, 3-pt assay.
The target is the same in test [2]. The test is described as follows: cell binding, U266 cells, full range of concentrations.

B1: hSG16.17 vH6 vK2 (antibody, V domains shown)
VH: QVQLVQSRAEVKKPGASVKLSCKASGYTFTDYYMHWVRQAPGQGLEWIGIINPNSGYTSYAQKFQGRVTMTADKSTNTAYVELSSLRSEDTAVYFCTRYMWERVTGFFDFWGQGTMVTVSS
VL: DIQMTQSPSSVSASVGDRVTITCLASEDISDDLAWYQQKPGKAPKVLVYTTSSLQSGVPSRFSGSGSGTDFTLTISSLQPEDFATYFCQQTYKFPPTFGGGTKVEIKR
With B1, the binding result in test [1] and in test [2] was “binds” each time.

B2: hSG16.17 vH6 vK4 (antibody, V domains shown)
VH: QVQLVQSRAEVKKPGASVKLSCKASGYTFTDYYMHWVRQAPGQGLEWIGIINPNSGYTSYAQKFQGRVTMTADKSTNTAYVELSSLRSEDTAVYFCTRYMWERVTGFFDFWGQGTMVTVSS
VL: DIQMTQSPSSVSASVGDRVTITCLASEDISDDLAWYQQKPGKAPKVLVYTTSRLQSGVPSRFSGSGSGTDFTLTISSMQPEDFADYFCQQTYKFPPTFGGGTKVEIKR
Regarding B2, the binding entry in test [1] and in test [2] was “binds” in each case.

B3: hSG16.17 vH6 vK5 (antibody, V domains shown)
VH: QVQLVQSRAEVKKPGASVKLSCKASGYTFTDYYMHWVRQAPGQGLEWIGIINPNSGYTSYAQKFQGRVTMTADKSTNTAYVELSSLRSEDTAVYFCTRYMWERVTGFFDFWGQGTMVTVSS
VL: DIQMTQSPSSVSASVGDRVTITCRASEDISDDLAWYQQKSGKAPKVLVYTTSSLQSGVPSRFSGSGSGTDFTLTISSLQPEDFATYFCQQTYKFPPTFGGGTKVEIKR
With B3, the binding result in test [1] and in test [2] was “binds” throughout.

B4: hSG16.17 vH6 vK3 (antibody, V domains shown)
VH: QVQLVQSRAEVKKPGASVKLSCKASGYTFTDYYMHWVRQAPGQGLEWIGIINPNSGYTSYAQKFQGRVTMTADKSTNTAYVELSSLRSEDTAVYFCTRYMWERVTGFFDFWGQGTMVTVSS
VL: DIQMTQSPSSVSASVGDRVTITCRASEDISDDLAWYQQKPGKAPKVLVYTTSSLQSGVPSRFSGSGSGTDFTLTISSLQPEDFATYFCQQTYKFPPTFGGGTKVEIKR
Consider B4, for which the binding entry in test [1] and in test [2] was “binds” each time.

For the origin of these results see patent publication US20190194338A1.
